According to patent US6710090B2, “Inhibitory or blocking agents of molecular generating and/or inducing functions” (priority 1994, dated 2004):

System: NADPH, cytochrome C, heme and aromatic amino acids in defibrinized human blood serum
Experiment: Effect on NADPH, heme and cytochrome C, infrared spectrophotometer
Assay type: biochemical
Conditions: 4 μl of Yoshixol

C=C1CC(C)(C)C=CC1=O [Yoshixol, 4,4-dimethyl-6-methylene-2-cyclohexen-1-one]
concentration of NADPH, cytochrome C and heme (1 μl defibrinized human blood serum, 340, 415, 520, 550 nanometer): did not alter | characteristic peak of wave length with amino acids (aromatic amino acids 280 nanometer): disappeared and shifted to lower wave length
